Assay results: PubChem BioAssay AID2685 (National Center for Advancing Translational Sciences (NCATS), 2010)
The other results are listed elsewhere or left out. Shown are side measurements of this screen, not its main read-out; they come without a call. Most of these compounds were active or inconclusive in the main read-out, so they are no random draw. Words in brackets tell the shape of the fitted curve; partial curves, single points and poor fits give uncertain potencies.

Test: qHTS Assay for Lipid Storage Modulators in Drosophila S3 Cells;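 on cell number change: cells counted by Cell Tracker Red CMTPX staining in the red channel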
Conditions: BODIPY lipid droplet fluorescence, 18-24 h; for cell number change: measured here: cell count max response, cells fed with added oleic acid
Procedure, shortened: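 Drosophila S3 cells loaded with oleic acid (400 uM, as added) and compounds at several concentrations; lipid droplets imaged by 488-nm laser-scanning cytometry, 500–530 nm intensity and object ratio to cell channel. Percent activity normalized to 20 uM Triacsin C.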

[1] = measured here: lipid fluorescence (Fed channel) AC50, cells fed with added oleic acid
[2] = measured here: cell number channel AC50, cells fed with added oleic acid

| Compound | AC50 [1] | cell number change [%] | AC50 [2] |
| --- | --- | --- | --- |
| CCCCN(CC(=O)Nc1cccc(S(=O)(=O)N2CCCC2)c1)Cc1nc2ccccc2c(=O)[nH]1 | 29.1 µM [falling, single point] | – | – |
| O=C(CC1C(=O)NCCN1Cc1c(F)cccc1Cl)NC1CCCC1 (centres undefined) | 0.146 µM [rising, full curve, poor fit] | 6.8 | – |
| CC(C)CC(=O)Nc1nnc(S(=O)(=O)N2CCc3ccccc32)s1 | 25.9 µM [rising, single point] | 18.9 | – |
| CCOC(=O)C1(Cc2ccccc2Cl)CCN(S(C)(=O)=O)CC1 | 1.64 µM [rising, partial curve, poor fit] | – | – |
| CC1CCCN(CC(O)COc2ccc(-c3ccccc3)cc2)C1 (centres undefined) | – | 14.5 | – |
| Cc1ccc(C(=O)N2CC(=O)Nc3ccc(F)cc3C2c2ccccc2)cc1[N+](=O)[O-] (centres undefined) | 0.184 µM [rising, full curve, poor fit] | 5.46 | – |
| COC(=O)c1ccccc1NC(=O)CN1CCN(Cc2ccccc2)CC1 | – | -25 | – |
| O=C(CSc1nc2ccccc2c(=O)[nH]1)Nc1ccc(Br)cc1 | 29.1 µM [rising, single point] | 24.3 | – |
| O=C(COc1ccccc1)N/N=C/c1ccc(O[C@@H]2O[C@H](CO)[C@@H](O)[C@H](O)[C@H]2O)cc1 | – | -16.7 | 0.0164 µM [falling, full curve, poor fit] |
| CCCNC(=O)c1ccccc1NS(=O)(=O)c1ccc2c(c1)OCCO2 | 13 µM [rising, partial curve] | 2.84 | – |
| Cc1ccc(N2C(S)=C(C#N)C(=O)NC23CCCCC3)cc1 | 29.1 µM [falling, single point] | -7.14 | 4.11 µM [rising, single point] |
| COc1ccc(NC(=S)NCc2ccccn2)cc1OC | 0.112 µM [rising, full curve, poor fit] | 27.6 | – |
| N#CCCN(C(=O)Cn1nc(C(=O)O)c2ccccc2c1=O)c1ccccc1 | 2.31 µM [falling, partial curve, poor fit] | 19.8 | – |
| CCCCN(C)CCCNC(=O)C1CC(=O)N(Cc2ccc(OC)cc2)C1 (centres undefined) | 4.11 µM [falling, full curve, poor fit] | 5.29 | 0.00517 µM [falling, full curve, poor fit] |
| CC(C)(C)OC(=O)N/N=C\c1ccc(OC(=O)c2cccs2)cc1 | 36.6 µM [falling, partial curve, poor fit] | -30.6 | 32.6 µM [falling, partial curve, poor fit] |
| C=C1CN(Cc2ccccc2)S(=O)(=O)c2ccccc21 | 11.6 µM [rising, partial curve] | 23.5 | – |
| CCC1Oc2ccccc2N(CC(=O)NCCCN2CCCC2)C1=O (centres undefined) | – | 14.4 | – |
| OCC[C@H]1C[C@H](O)[C@@H](O)[C@]2(OCc3ccccc32)O1 | 0.92 µM [rising, full curve, poor fit] | -6.2 | – |
| Cc1ccc(C(C[N+](=O)[O-])Sc2ccc(N)cc2)cc1 (centres undefined) | 9.2 µM [falling, partial curve, poor fit] | -62 | 14.6 µM [falling, partial curve, poor fit] |
| Cc1ccc(NS(=O)(=O)c2c(C)[nH]c(C)c2C(=O)N2CCCC2)cc1 | 0.517 µM [rising, single point] | 17.8 | – |

| Compound | AC50 [1] | cell number change [%] | AC50 [2] |
| --- | --- | --- | --- |
| O=C1CCN(Cc2ccccc2)S(=O)(=O)c2ccc(F)cc21 | 2.91 µM [rising, partial curve, poor fit] | -12.3 | – |
| CCCOn1c(-n2nc(C)cc2C)nc2ccccc2c1=O | 2.06 µM [rising, partial curve] | 31.5 | 1.84 µM [rising, full curve] |
| Cn1cnnc1SCC(=O)Nc1ccc(Oc2ccccc2)cc1 | – | 14.4 | – |
| CCCc1ccc(C(=O)NNC(=O)c2ccc(Cl)cc2)cc1 | 0.461 µM [falling, full curve] | 4.01 | – |
| COC(=O)COc1ccccc1/C=C1/NC(=O)NC1=O | 0.651 µM [falling, full curve, poor fit] | -1.26 | – |
| C/C(=N/NC(=O)c1ccc(Br)o1)c1cccc(NC(=O)c2ccc(F)cc2)c1 | – | -9.38 | – |
| CC1CCN(CC(=O)Nc2cccc(C(=O)Nc3cccc(C(F)(F)F)c3)c2)CC1 | 1.64 µM [falling, single point] | -35.2 | 0.231 µM [falling, full curve] |
| Cc1csc(SCC(=O)NC(=O)c2ccccc2)n1 | – | -13.3 | – |
| CC1CCCN(C(=O)CCNC(=O)Cn2cnc3ccccc3c2=O)C1 (centres undefined) | – | 12.2 | – |
| O=C(c1ccccc1)N1CCN(C2CC3CCC2C3)CC1 (centres undefined) | 2.59 µM [falling, full curve] | -32.7 | 3.26 µM [falling, full curve] |
| CCN(CCCNC(=O)Cn1ncc2c([nH]c3ccc(C)cc32)c1=O)Cc1ccccc1 | 6.51 µM [rising, single point] | 18 | – |
| CCOC(=O)N1CCC(NC(=O)c2cc(C(=O)NCc3cccc(Cl)c3)ccc2CO)CC1 | – | 3.55 | – |
| CC(=O)[C@@]12O[C@@H]1C[C@H]1[C@@H]3CC[C@H]4C[C@@H](O)CC[C@]4(C)[C@H]3CC[C@@]12C | 5.17 µM [falling, full curve, poor fit] | – | – |
| COCCn1c(SCC(=O)Nc2cc(C)on2)nnc1-c1c[nH]c2ccccc12 | 0.92 µM [rising, full curve, poor fit] | 10.5 | – |
| COc1cc(N)c(Cl)cc1C(=O)OCC(=O)N1CCc2ccccc21 | 1.3 µM [rising, full curve] | -0.0627 | – |
| CCC1CCCCN1CCCNC(=O)Cn1ncc2c([nH]c3ccc(C)cc32)c1=O (centres undefined) | – | 37.2 | 29.1 µM [rising, partial curve, poor fit] |
| CCC1CCCCN1CCCNC(=O)c1ccc2c(=O)n(CCOC)c(=O)[nH]c2c1 (centres undefined) | 0.00651 µM [falling, full curve, poor fit] | 12.5 | – |
| COc1ccccc1C(=O)NNC(=O)C1CC=CCC1 (centres undefined) | 29.1 µM [rising, single point] | 4.46 | – |
| O=C(NC1CC1)c1ccc(CS(=O)c2ccccc2)o1 (centres undefined) | 0.291 µM [rising, full curve] | 21.3 | – |
| Cc1ccccc1-c1nnc(NC(=O)c2ccc(N3C(=O)CCC3=O)cc2)s1 | 1.16 µM [rising, full curve, poor fit] | -1.56 | – |

| Compound | AC50 [1] | cell number change [%] | AC50 [2] |
| --- | --- | --- | --- |
| O=C(NCCc1ccc(F)cc1)c1cc(=O)c2ccccc2o1 | 18.4 µM [falling, single point] | -16.2 | – |
| O=[N+]([O-])c1ccc(-c2csc(N3CCc4ccccc4C3)n2)cc1 | 8.2 µM [rising, partial curve, poor fit] | 7.27 | – |
| Cc1nn(C(=O)c2cc([N+](=O)[O-])ccc2Cl)c(C)c1Br | 0.164 µM [rising, full curve, poor fit] | – | – |
| COc1cccc(NC(=O)CN(C)C(=O)c2cc3c(s2)CCCCC3)c1 | – | 23.6 | – |
| Cc1ccc(C)c(OCCN2C(=O)NC3(CCc4ccccc4C3)C2=O)c1 (centres undefined) | 18.4 µM [rising, single point] | 0.445 | 0.731 µM [rising, single point] |
| CCc1cc(C(=O)OC)c(NC(=O)c2cc(Br)cs2)s1 | 0.231 µM [rising, full curve, poor fit] | -1.29 | – |
| Cc1n[nH]c(=O)c2ccccc12 | 0.00461 µM [falling, full curve, poor fit] | -8.14 | – |
| CCc1nnc(NC(=O)CC(CN(C)S(=O)(=O)c2ccccc2)c2ccccc2)s1 (centres undefined) | – | 22.5 | 2.31 µM [rising, full curve, poor fit] |
| O=C(NNc1ncnc2c1cnn2-c1ccc(F)cc1)c1cccs1 | 29.1 µM [rising, single point] | 30.4 | – |
| O=C(N1CCCCC1)N1CCN(S(=O)(=O)c2ccccc2)CC1 | – | 25.7 | – |
| CC(=O)Nc1nnc(SCC(=O)NC2CC2)s1 | 32.6 µM [rising, single point] | 12.4 | – |
| C/C(=N\S(=O)(=O)c1ccc(C)cc1)NC(=S)Nc1ccc(C)cc1 | 5.17 µM [falling, single point] | – | 6.51 µM [falling, single point] |
| COc1cccc(-c2nn(-c3ccccc3)cc2CNC(C)Cn2cncn2)c1 (centres undefined) | 0.231 µM [falling, full curve, poor fit] | 12 | – |
| Cc1ccc(N=Cc2c(C)[nH]n(-c3nc4ccccc4[nH]3)c2=O)cc1 | – | -30.4 | 11.6 µM [falling, partial curve] |
| COc1ccc(C)cc1NC(=O)c1ccc(NS(=O)(=O)c2c(C)noc2C)cc1 | – | -12.5 | – |
| COC(=O)[C@@]1(Cc2ccc(F)cc2)[C@H]2c3cc(C(=O)N(C)C)n(Cc4nc5ccccc5[nH]4)c3C[C@H]2CN1C(=O)c1ccccc1 | 0.326 µM [rising, partial curve, poor fit] | 9.98 | 0.411 µM [rising, single point] |
| CC(Sc1nc(N)cc(=O)[nH]1)C(=O)Nc1sc2c(c1C#N)CCCC2 (centres undefined) | 32.6 µM [falling, partial curve, poor fit] | -57.5 | 29.1 µM [falling, partial curve, poor fit] |
| O=c1[nH]cc(I)cc1I | – | -47.8 | 29.1 µM [falling, single point] |
| O=C(CSc1nnc(-c2ccccc2F)o1)NC(=O)Cc1ccccc1 | 20.6 µM [falling, single point] | -41.4 | 29.1 µM [falling, single point] |

Copied from above for reference:

| Compound | AC50 [1] | cell number change [%] | AC50 [2] |
| --- | --- | --- | --- |
| COC(=O)[C@@]1(Cc2ccc(F)cc2)[C@H]2c3cc(C(=O)N(C)C)n(Cc4nc5ccccc5[nH]4)c3C[C@H]2CN1C(=O)c1ccccc1 | 0.326 µM [rising, partial curve, poor fit] | 9.98 | 0.411 µM [rising, single point] |
| CC(Sc1nc(N)cc(=O)[nH]1)C(=O)Nc1sc2c(c1C#N)CCCC2 (centres undefined) | 32.6 µM [falling, partial curve, poor fit] | -57.5 | 29.1 µM [falling, partial curve, poor fit] |
| O=c1[nH]cc(I)cc1I | – | -47.8 | 29.1 µM [falling, single point] |
| O=C(CSc1nnc(-c2ccccc2F)o1)NC(=O)Cc1ccccc1 | 20.6 µM [falling, single point] | -41.4 | 29.1 µM [falling, single point] |
